Data as given in PubChem BioAssay AID1224830 (NIAID, 2016).
Assay: 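Host factors that control LPS-induced TNF expression in human macrophages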 (primary screen). Cell system: human THP-1 monocytic leukaemia cells, TNF dual-luciferase reporter clone, PMA-differentiated to macrophage-like cells. Knock-down reagent: siRNA pool against human genes, 50 nM. Timing: LPS for 4 h, given about 3 days after siRNA transfection. Treatment: bacterial LPS (TLR4 ligand), 10 ng/ml. Detection: 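Ratio of firefly to renilla light, scaled to the plate median and expressed as a robust z-score per replicate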. Direction: TNF reporter robust z-score: higher = stronger TNF reporter response to LPS. Call rule: 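a well is active when its z-score exceeds 2.8 or falls below -1.5; control wells carry no call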.
This is one part, drawn at random, of about 18,000 reagents. Of all reagents, about 2,900 (16%) got an active call. 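Calls are made per well; low scores hint the gene aids the LPS response, high scores that it dampens it.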 Repeated entries: four replicate wells of each siRNA pool. Reagent sequences are not shown.

PHYHIPL gave TNF reporter robust z-score 0.64; inactive.
PHYHIPL gave TNF reporter robust z-score 0.76; inactive.
Knock-down of PHYHIPL gave: TNF reporter robust z-score 0.7; inactive.
PHYHIPL showed TNF reporter robust z-score 1.51; inactive.
NCAPH2 scored inactive.
Silencing of CCDC121 came out at: TNF reporter robust z-score -1.96; active.
Silencing of CCDC121 came out at: TNF reporter robust z-score -0.87; inactive.
CCDC121 scored TNF reporter robust z-score -1.6; active.
Depletion of CCDC121 resulted in: TNF reporter robust z-score -1.35; inactive.
DNAAF6 scored TNF reporter robust z-score -0.87; inactive.
With knock-down of DNAAF6, the screen gave TNF reporter robust z-score -0.18; inactive.
DNAAF6 showed TNF reporter robust z-score -0.95; inactive.
DNAAF6 gave TNF reporter robust z-score -0.94; inactive.

Sorted by “TNF reporter robust z-score” (ascending): some entries from above
PHYHIPL: TNF reporter robust z-score = 0.64; outcome = inactive
PHYHIPL: TNF reporter robust z-score = 0.7; outcome = inactive
PHYHIPL: TNF reporter robust z-score = 0.76; outcome = inactive

The list goes on:
Silencing of SDF4 gave: TNF reporter robust z-score -0.18; inactive.
SDF4 gave TNF reporter robust z-score 0.45; inactive.
SDF4 scored TNF reporter robust z-score 0.66; inactive.
For SDF4, the values are TNF reporter robust z-score 1.45; inactive.
CST5 scored TNF reporter robust z-score 0.96; inactive.
Against CST5 the deposit lists TNF reporter robust z-score 1.22; inactive.
Against CST5, the entry reads TNF reporter robust z-score 1.4; inactive.
CST5 scored TNF reporter robust z-score 4.19; active.
Silencing of OR10W1 resulted in: TNF reporter robust z-score -1.53; active.
Against OR10W1 the deposit lists TNF reporter robust z-score -1.14; inactive.
OR10W1 scored TNF reporter robust z-score -1.31; inactive.
After knock-down of OR10W1 the results were TNF reporter robust z-score -0.91; inactive.
Silencing of SPG21 came out at: TNF reporter robust z-score -0.03; inactive.
With knock-down of SPG21 the results were TNF reporter robust z-score 0.26; inactive.
Against SPG21 the deposit lists TNF reporter robust z-score 0.63; inactive.
Against SPG21 the deposit lists TNF reporter robust z-score -1.17; inactive.
Against RFK, the entry reads TNF reporter robust z-score -1.59; active.
Depletion of RFK resulted in: TNF reporter robust z-score -1.22; inactive.
Against RFK the deposit lists TNF reporter robust z-score -1.47; inactive.
Silencing of RFK came out at: TNF reporter robust z-score -1.69; active.
